Here are results for 2 sequences from article PMC7368061.

Construct, isoform or probe ends are uncertain for at least one entry. For some of these results: Weaker means in comparison with the reference protein, sequence or condition of that experiment. At least one verdict was read from the data and is not stated in words by the source. Protein sequences can lack the tags named with them. For some of these results: Where cells or extracts were used, other partners may take part. For some of these results: No signal at the amounts used counts as a negative.

For data set [1], the target named is T1, SPDEF (endogenous, LNCaP nuclear lysate) (UniProt O95238).
T1 sequence (looked up, limits assumed): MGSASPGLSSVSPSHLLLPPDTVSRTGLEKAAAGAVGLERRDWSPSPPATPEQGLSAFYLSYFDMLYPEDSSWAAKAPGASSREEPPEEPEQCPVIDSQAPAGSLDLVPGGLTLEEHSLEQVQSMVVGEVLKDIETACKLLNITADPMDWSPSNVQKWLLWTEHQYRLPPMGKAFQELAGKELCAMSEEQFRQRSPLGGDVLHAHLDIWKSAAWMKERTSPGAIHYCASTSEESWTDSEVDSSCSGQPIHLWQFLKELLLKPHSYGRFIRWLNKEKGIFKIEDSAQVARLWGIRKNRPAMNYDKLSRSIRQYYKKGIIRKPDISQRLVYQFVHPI
Nature of the data set: EMSA. The note with it: LNCaP nuclear lysate, EMSA on 6% native polyacrylamide, binding buffer and temperature not given, lysate in 25 mM Tris-Cl pH 7.4, 150 mM KCl, 0.5% NP-40, protease inhibitors, protein in an extract, label: 32P 5' end. For orientation: In EMSA bound probe runs differently from free probe, usually more slowly.

The target of data set [2] is T2, SPDEF (recombinant, GST cleaved) (UniProt O95238).
T2 sequence (looked up, limits assumed): T1 sequence (looked up, limits assumed)
The experiment in a line: EMSA. The note with it: pure SPDEF, EMSA on 6% native polyacrylamide, binding buffer and temperature not given, lysate in 25 mM Tris-Cl pH 7.4, 150 mM KCl, 0.5% NP-40, protease inhibitors, recombinant protein, protein details: GST tag cleaved before EMSA (pGEX6p1), label: 32P 5' end.

With “TATTTGTTTTGGGTGACACAATTCAACCGGTAACATATCCTGATCCTTGGC (double strand) [EMSA-A (rs72725854 non-risk allele A)]”, the binding result in data set [1] (only an unknown protein bound) was “no binding”; in data set [2] (legend: differential affinities of T and A alleles), “binds more weakly”.

Take “TATTTGTTTTGGGTGACACAATTCATCCGGTAACATATCCTGATCCTTGGC (double strand) [EMSA-T (rs72725854 risk allele T)]”: the binding result in data set [1] (complex reduced with siSPDEF lysate) and in data set [2] was “binds” in each case.
